# Results reported in publication PMC8579453.
# By UniProt entry, the sequences of proteins in these tests, tags left out. Residues count along the entry.
# UniProt P10912, residues 19-638: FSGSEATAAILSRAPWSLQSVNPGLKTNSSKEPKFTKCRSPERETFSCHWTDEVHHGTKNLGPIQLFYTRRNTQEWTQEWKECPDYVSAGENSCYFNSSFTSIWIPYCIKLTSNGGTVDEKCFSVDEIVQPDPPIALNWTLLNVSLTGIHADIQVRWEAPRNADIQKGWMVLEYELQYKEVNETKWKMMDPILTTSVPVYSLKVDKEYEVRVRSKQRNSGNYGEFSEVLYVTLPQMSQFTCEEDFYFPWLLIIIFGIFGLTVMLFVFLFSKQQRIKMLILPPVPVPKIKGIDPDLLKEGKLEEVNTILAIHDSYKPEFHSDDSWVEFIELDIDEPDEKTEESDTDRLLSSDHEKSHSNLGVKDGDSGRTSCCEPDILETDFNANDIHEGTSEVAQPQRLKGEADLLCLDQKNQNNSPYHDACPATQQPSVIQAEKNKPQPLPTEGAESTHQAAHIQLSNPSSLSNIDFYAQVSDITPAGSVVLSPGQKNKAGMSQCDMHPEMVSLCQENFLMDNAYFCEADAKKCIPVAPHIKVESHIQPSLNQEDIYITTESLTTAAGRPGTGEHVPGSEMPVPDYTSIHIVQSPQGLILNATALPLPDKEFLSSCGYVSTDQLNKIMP
# UniProt P35869, residues 11-848: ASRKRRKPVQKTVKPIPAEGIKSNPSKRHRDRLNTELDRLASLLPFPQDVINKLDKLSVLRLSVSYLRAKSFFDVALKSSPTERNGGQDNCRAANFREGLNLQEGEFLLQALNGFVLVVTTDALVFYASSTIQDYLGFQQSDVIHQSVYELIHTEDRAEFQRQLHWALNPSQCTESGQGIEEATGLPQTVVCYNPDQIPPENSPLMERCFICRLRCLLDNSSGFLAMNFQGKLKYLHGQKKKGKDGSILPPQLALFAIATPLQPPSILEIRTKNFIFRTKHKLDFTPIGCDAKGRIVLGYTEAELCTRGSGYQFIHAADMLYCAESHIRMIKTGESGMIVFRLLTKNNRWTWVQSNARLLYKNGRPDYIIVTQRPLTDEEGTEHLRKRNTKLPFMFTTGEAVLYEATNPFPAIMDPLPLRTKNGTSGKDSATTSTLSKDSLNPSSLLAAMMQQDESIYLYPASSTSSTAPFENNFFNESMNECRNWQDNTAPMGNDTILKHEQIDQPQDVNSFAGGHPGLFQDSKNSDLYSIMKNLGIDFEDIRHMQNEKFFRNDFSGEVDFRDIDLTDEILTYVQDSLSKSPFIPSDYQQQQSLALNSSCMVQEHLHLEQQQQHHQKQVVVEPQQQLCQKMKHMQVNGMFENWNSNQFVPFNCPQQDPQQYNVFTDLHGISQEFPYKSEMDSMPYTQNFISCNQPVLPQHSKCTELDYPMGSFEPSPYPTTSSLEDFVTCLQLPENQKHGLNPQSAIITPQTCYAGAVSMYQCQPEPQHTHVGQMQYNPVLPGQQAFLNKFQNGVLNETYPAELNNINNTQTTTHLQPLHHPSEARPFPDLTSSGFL
# These are yes or no findings as the source states them, for the method shown. Binding seen in cells or lysates may run through a third protein.
# Target: growth hormone receptor (human hepatocytes) (human (endogenous in human hepatocytes)) (UniProt P10912)
# Test: co-IP; human hepatocytes with the AHR ligand Tapinarof, harvested after 24 hours; IP with Beyotime's kit, product verified by Western blot; bait not stated
substance,measurement,value
AHR (human hepatocytes) (from UniProt P35869 11-848),binding,no binding
